From publication doi:10.1101/129551
These are yes or no findings as the source states them, for the method shown. Binding seen in cells or lysates may run through a third protein. Some entries that bind do so weakly or less than the wild type.

Chains of the proteins cited; added tags and fusions are not shown. Residues count along the entry.
UniProt P05067, residues 672-713: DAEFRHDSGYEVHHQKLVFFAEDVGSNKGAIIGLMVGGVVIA
UniProt P63044: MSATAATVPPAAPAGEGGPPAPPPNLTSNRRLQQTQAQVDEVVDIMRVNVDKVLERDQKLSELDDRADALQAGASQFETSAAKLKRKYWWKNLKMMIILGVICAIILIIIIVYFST

How the values were obtained:
β-amyloid peptide Aβ42 = β-amyloid peptide Aβ42 (UniProt P05067); assay: pull-down
[1] = target: synaptobrevin 2 (VAMP2), endogenous mouse (mouse (endogenous in cortical neurons and brain synaptosomes)) (UniProt P63044); assay: co-IP

B1: synaptogyrin 1 (SYNGR1), endogenous mouse (protein, UniProt O55100 1-234)
chain: MEGGAYGAGKAGGAFDPYTLVRQPHTILRVVSWVFSIVVFGSIVNEGYLNNPEEEEEFCIYNRNPNACSYGVTVGVLAFLTCLLYLALDVYFPQISSVKDRKKAVLSDIGVSAFWAFFWFVGFCFLANQWQVSKPKDNPLNEGTDAARAAIAFSFFSIFTWAGQAVLAFQRYQIGADSALFSQDYMDPSQDSSMPYAPYVEPSAGSDPAGMGGTYQHPANAFDAEPQGYQSQGY
With B1 the binding (β-amyloid peptide Aβ42) was “no binding” and the binding [1] was “binds”.
